# Assay results reported in patent US9169252B2 (BRISTOL-MYERS SQUIBB COMPANY, priority 2014, dated 2015).
# Test system: TLR2 induced IL-6 in peripheral blood mononuclear cells (PBMCs)
# Assay: PBMC TLR2 Induced IL-6 Assay
# Assay type: cell-based
# Conditions: Homo sapiens, read-out: Cell EC50
# Protocol: PBMC TLR2 Induced IL-6 Assay
# Peripheral blood mononuclear cells (PBMCs) were isolated from human blood containing the anti-coagulant EDTA (2.5 mM) by centrifugation over a FICOLL® gradient. PBMCs (250000 cells/well) were cultured in assay media (RPMI with 10% heat inactivated FCS) with compounds for 30 minutes at 37° C. in a 5% CO2 incubator. Following pretreatment with compounds, cells were stimulated for 5 hours with 10 µg/ml lipoteichoic acid (Invivogen, San Diego, Calif.), a TLR2 agonist. At the end of the culture, plates were centrifuged at 1800 rpm for 10 minutes to pellet the cells. Supernatants were harvested and analyzed for IL-6 levels by ELISA (BD Biosciences, San Jose, Calif.).
compound,measurement,value
"CC(C)(O)[C@H](F)CNC(=O)c1cnc(-n2cnc3cc(C#N)cnc32)cc1NC1COC1 [Example 333, (R)-6-(6-Cyano-3H-imidazo[4,5-b]pyridin-3-yl)-N-(2-fluoro-3-hydroxy-3-methylbutyl)-4-(oxetan-3-ylamino)nicotinamide]",EC50,524 nM
